{"source": "PubChem BioAssay AID248", "about": "(DTP/NCI, 2004)", "tested_on": "L1210 leukemia ip in BDF1 mice, survival T/C", "assay": "NCI In Vivo Anticancer Drug Screen. Data for tumor model L1210 Leukemia (intraperitoneal) in B6D2F1 (BDF1) mice", "conditions": "T/C endpoint: mean survival time, higher T/C = longer survival", "key": {"[1]": {"conditions": "dose: 100.0 mg/kg/injection, schedule: Q04DX003 (ip), vehicle: acetone"}, "[2]": {"conditions": "dose: 675.0 mg/kg/injection, schedule: Q01DX Z (ip), vehicle: saline"}, "[3]": {"conditions": "dose: 100.0 mg/kg/injection, schedule: Q01DX001 (ip), vehicle: Klucel (hydroxypropylcellulose) (HPC)"}, "[4]": {"conditions": "dose: 200.0 mg/kg/injection, schedule: Q01DX001 (ip), vehicle: Klucel (hydroxypropylcellulose) (HPC)"}, "[5]": {"conditions": "dose: 400.0 mg/kg/injection, schedule: Q01DX001 (ip), vehicle: Klucel (hydroxypropylcellulose) (HPC)"}, "[6]": {"conditions": "dose: 200.0 mg/kg/injection, schedule: Q01DX009 (ip), vehicle: Klucel (hydroxypropylcellulose) (HPC)"}, "[7]": {"conditions": "dose: 400.0 mg/kg/injection, schedule: Q01DX009 (ip), vehicle: Klucel (hydroxypropylcellulose) (HPC)"}, "[8]": {"conditions": "dose: 400.0 mg/kg/injection, schedule: Q04DX003 (ip), vehicle: Klucel (hydroxypropylcellulose) (HPC)"}}, "note": "The list shows only some results of the screen, not a fair sample: it is rich in T/C values a quarter to a half above the control, in often repeated tests (any T/C) and in doses without a T/C. Other doses and runs of a compound stand elsewhere. T/C gives the treated animals as a percentage of the vehicle group. Some doses have a count of surviving animals in place of a T/C: the source holds a T/C of zero for them, seemingly a mark for toxic or unscored doses. Some doses without a T/C left all or most animals alive at the check, yet need not have been tolerated: survival well below the control is almost never listed, so the zero probably covers shortened survival too. Counts of survivors are from the toxicity check (mostly the fifth day) where no day follows; animals may have died later. Schedules are NCI's codes, taken here to give the interval after Q, in days (D) or hours (H), and the number of doses after X. Some schedules carry Z or #; the key to these is not given. Some entries were tested several times; their values stand side by side, smallest first. Where survival is the endpoint, the PubChem record calls one and a half times the control and up active, and a quarter to a half above the control has no call in these data; cut-offs in other NCI protocols can differ. Some T/C values are followed by the survivors on the day toxicity was checked, most often the fifth; where none is given, no animal had died by that day."}
{"smiles": "CN(C)c1ccc(/C=N\\NC(=S)Nc2ccccc2)c(Cl)c1", "values": [{"measurement": "survivor count", "setting": "[1]", "result": "6 of 6"}, {"measurement": "survivor count", "setting": "dose: 200.0 mg/kg/injection, schedule: Q04DX003 (ip), vehicle: acetone", "result": "6 of 6"}, {"measurement": "survivor count", "setting": "dose: 255.0 mg/kg/injection, schedule: Q01DX009 (ip), vehicle: saline with Tween-80", "result": "6 of 6"}, {"measurement": "survivor count", "setting": "dose: 385.0 mg/kg/injection, schedule: Q01DX009 (ip), vehicle: saline with Tween-80", "result": "6 of 6"}, {"measurement": "survivor count", "setting": "dose: 400.0 mg/kg/injection, schedule: Q04DX003 (ip), vehicle: acetone", "result": "6 of 6"}]}
{"smiles": "CC(=O)c1ccc2c3ccccc3n(CCCN3CCC(O)CC3)c2c1", "values": [{"measurement": "survivor count", "setting": "dose: 400.0 mg/kg/injection, schedule: Q04DX002 (ip), vehicle: saline", "result": "0 of 3"}]}
{"smiles": "Nc1ccc(C(=O)NO)cc1", "values": [{"measurement": "T/C", "setting": "dose: 300.0 mg/kg/injection, schedule: Q01DX Z (ip), vehicle: saline", "result": "125 and 128 % of control"}, {"measurement": "T/C", "setting": "dose: 450.0 mg/kg/injection, schedule: Q01DX Z (ip), vehicle: carboxymethylcellulose (CMC)", "result": "137 % of control"}, {"measurement": "T/C", "setting": "dose: 450.0 mg/kg/injection, schedule: Q01DX Z (ip), vehicle: saline", "result": "129 and 140 % of control"}, {"measurement": "survivor count", "setting": "dose: 675.0 mg/kg/injection, schedule: Q01DX Z (ip), vehicle: carboxymethylcellulose (CMC)", "result": "2 of 6"}, {"measurement": "T/C", "setting": "[2]", "result": "127 % of control"}, {"measurement": "survivor count", "setting": "[2]", "result": "3 of 6"}, {"measurement": "survivor count", "setting": "dose: 1007.0 mg/kg/injection, schedule: Q01DX Z (ip), vehicle: saline", "result": "0 of 6"}]}
{"smiles": "Cc1ccc(S(=O)(=O)N(c2ccccc2)C(C)C(=O)c2ccccc2)cc1", "note": "(centres undefined)", "values": [{"measurement": "survivor count", "setting": "dose: 50.0 mg/kg/injection, schedule: Q01DX001 (ip), vehicle: other", "result": "0 of 4"}]}
{"smiles": "CN(CCCl)Cc1ccc(OCc2ccccc2)c(OCc2ccccc2)c1", "values": [{"measurement": "survivor count", "setting": "[3]", "result": "5 of 6"}, {"measurement": "survivor count", "setting": "[4]", "result": "2 of 6"}, {"measurement": "survivor count", "setting": "[5]", "result": "0 of 6"}]}
{"smiles": "O=C(CC(O)(C(F)(F)F)C(F)(F)F)c1cccc(S(=O)(=O)F)c1", "values": [{"measurement": "survivor count", "setting": "dose: 400.0 mg/kg/injection, schedule: Q04DX003 (ip), vehicle: saline with Tween-80", "result": "5 of 6"}]}
{"smiles": "CCCCCCCCCC/C=N\\N=C(N)N", "values": [{"measurement": "survivor count", "setting": "dose: 60.0 mg/kg/injection, schedule: Q01DX Z (ip), vehicle: other", "result": "1 of 6"}, {"measurement": "survivor count", "setting": "dose: 120.0 mg/kg/injection, schedule: Q01DX Z (ip), vehicle: other", "result": "0 of 6"}]}
{"smiles": "c1ccc(C(NC2=NCCCCCC2)c2ccco2)cc1", "note": "(centres undefined)", "values": [{"measurement": "survivor count", "setting": "dose: 50.0 mg/kg/injection, schedule: Q01DX009 (ip), vehicle: Klucel (hydroxypropylcellulose) (HPC)", "result": "1 of 6"}, {"measurement": "survivor count", "setting": "dose: 100.0 mg/kg/injection, schedule: Q01DX009 (ip), vehicle: Klucel (hydroxypropylcellulose) (HPC)", "result": "0 of 6"}, {"measurement": "survivor count", "setting": "[6]", "result": "0 of 6"}, {"measurement": "survivor count", "setting": "[7]", "result": "0 of 6"}]}
{"smiles": "C=CCOc1ccccc1C", "values": [{"measurement": "survivor count", "setting": "dose: 400.0 mg/kg/injection, schedule: Q01DX001 (ip), vehicle: saline", "result": "1 of 4"}]}
{"smiles": "Cn1ncc2c1NC(c1ccc(F)cc1)SCC2=O", "note": "(centres undefined)", "values": [{"measurement": "T/C", "setting": "dose: 100.0 mg/kg/injection, schedule: Q01DX009 (ip), vehicle: gum acacia", "result": "131 % of control"}, {"measurement": "T/C", "setting": "dose: 200.0 mg/kg/injection, schedule: Q01DX009 (ip), vehicle: gum acacia", "result": "129 % of control"}]}
{"smiles": "CC(C)=C1C2CCC1NN2", "values": [{"measurement": "survivor count", "setting": "[3]", "result": "3 of 6"}, {"measurement": "survivor count", "setting": "[4]", "result": "0 of 6"}, {"measurement": "survivor count", "setting": "[5]", "result": "0 of 6"}]}
{"smiles": "CC(NC(C)c1ccccc1)c1ccccc1", "note": "(centres undefined)", "values": [{"measurement": "survivor count", "setting": "[6]", "result": "3 of 6"}, {"measurement": "survivor count", "setting": "[8]", "result": "0 of 6"}]}
{"smiles": "NC(CSS(=O)(=O)O)=NCc1cccs1", "values": [{"measurement": "survivor count", "setting": "dose: 50.0 mg/kg/injection, schedule: Q01DX009 (ip), vehicle: saline with Tween-80", "result": "1 of 3"}]}
{"smiles": "CCCCCCCCCCCCCCN(C)C", "values": [{"measurement": "survivor count", "setting": "dose: 200.0 mg/kg/injection, schedule: Q04DX003 (ip), vehicle: Klucel (hydroxypropylcellulose) (HPC)", "result": "3 of 6"}, {"measurement": "survivor count", "setting": "[8]", "result": "0 of 6"}]}
{"smiles": "CNc1cc(C(=O)O)nc(NC)n1", "values": [{"measurement": "survivor count", "setting": "dose: 100.0 mg/kg/injection, schedule: Q01DX Z (ip), vehicle: saline", "result": "1 of 6"}, {"measurement": "survivor count", "setting": "dose: 200.0 mg/kg/injection, schedule: Q01DX Z (ip), vehicle: saline", "result": "0 of 6"}]}
{"smiles": "CC1(C)CN1P(=O)(N1CC1(C)C)N1CC1(C)C", "note": "(centres undefined)", "values": [{"measurement": "T/C", "setting": "dose: 1.5 mg/kg/injection, schedule: Q01DX009 (ip), vehicle: saline", "result": "130 % of control"}, {"measurement": "T/C", "setting": "dose: 3.0 mg/kg/injection, schedule: Q01DX009 (ip), vehicle: saline", "result": "135 % of control"}, {"measurement": "T/C", "setting": "dose: 5.0 mg/kg/injection, schedule: Q01DX001 (ip), vehicle: saline", "result": "127 % of control"}, {"measurement": "T/C", "setting": "dose: 10.0 mg/kg/injection, schedule: Q01DX001 (ip), vehicle: saline", "result": "127 % of control"}, {"measurement": "T/C", "setting": "dose: 10.0 mg/kg/injection, schedule: Q01DX009 (ip), vehicle: saline", "result": "127 % of control"}, {"measurement": "T/C", "setting": "dose: 20.0 mg/kg/injection, schedule: Q01DX001 (ip), vehicle: saline", "result": "139 % of control"}, {"measurement": "T/C", "setting": "dose: 75.0 mg/kg/injection, schedule: Q01DX001 (ip), vehicle: saline", "result": "142 % of control"}, {"measurement": "survivor count", "setting": "dose: 75.0 mg/kg/injection, schedule: Q01DX009 (ip), vehicle: saline", "result": "6 of 6"}, {"measurement": "T/C", "setting": "dose: 112.5 mg/kg/injection, schedule: Q01DX001 (ip), vehicle: saline", "result": "134 % of control [5 of 6 alive]"}, {"measurement": "survivor count", "setting": "dose: 150.0 mg/kg/injection, schedule: Q01DX009 (ip), vehicle: saline", "result": "0 of 6"}, {"measurement": "survivor count", "setting": "dose: 300.0 mg/kg/injection, schedule: Q01DX001 (ip), vehicle: saline", "result": "2 of 6 and 5 of 6"}, {"measurement": "survivor count", "setting": "dose: 600.0 mg/kg/injection, schedule: Q01DX001 (ip), vehicle: saline", "result": "5 of 6"}]}
{"smiles": "CCOC(=O)c1ccc(NC(=O)Nc2cccc(C(F)(F)F)c2)cc1", "values": [{"measurement": "survivor count", "setting": "[7]", "result": "6 of 6"}]}
{"smiles": "O=C(O)C1C(C(=O)O)C2(Cl)C(Cl)=C(Cl)C1(Cl)C2(Cl)Cl.[Mn]", "note": "(centres undefined)", "values": [{"measurement": "T/C", "setting": "dose: 100.0 mg/kg/injection, schedule: Q01DX009 (ip), vehicle: saline sonified", "result": "126 % of control"}, {"measurement": "survivor count", "setting": "[8]", "result": "0 of 6"}]}
{"smiles": "CCc1nc2c(c(=O)[nH]1)C(c1ccc(Cl)cc1)C(C)(C)O2", "note": "(centres undefined)", "values": [{"measurement": "survivor count", "setting": "[1]", "result": "6 of 6"}]}
{"smiles": "O=C(O)C1(C(=O)O)CC(c2ccccc2)C1", "values": [{"measurement": "survivor count", "setting": "dose: 75.0 mg/kg/injection, schedule: Q01DX009 (ip), vehicle: saline with Tween-80", "result": "6 of 6"}]}
